From paper PMC12533114
Results are given in words; binding and its absence hold for the method and conditions named. In cells and extracts the contact can be indirect. These calls come from enrichment with a bait or labelling near it, and not all partners need be listed.

The chains behind the UniProt entries cited, without tags or fusion partners.
UniProt P51593: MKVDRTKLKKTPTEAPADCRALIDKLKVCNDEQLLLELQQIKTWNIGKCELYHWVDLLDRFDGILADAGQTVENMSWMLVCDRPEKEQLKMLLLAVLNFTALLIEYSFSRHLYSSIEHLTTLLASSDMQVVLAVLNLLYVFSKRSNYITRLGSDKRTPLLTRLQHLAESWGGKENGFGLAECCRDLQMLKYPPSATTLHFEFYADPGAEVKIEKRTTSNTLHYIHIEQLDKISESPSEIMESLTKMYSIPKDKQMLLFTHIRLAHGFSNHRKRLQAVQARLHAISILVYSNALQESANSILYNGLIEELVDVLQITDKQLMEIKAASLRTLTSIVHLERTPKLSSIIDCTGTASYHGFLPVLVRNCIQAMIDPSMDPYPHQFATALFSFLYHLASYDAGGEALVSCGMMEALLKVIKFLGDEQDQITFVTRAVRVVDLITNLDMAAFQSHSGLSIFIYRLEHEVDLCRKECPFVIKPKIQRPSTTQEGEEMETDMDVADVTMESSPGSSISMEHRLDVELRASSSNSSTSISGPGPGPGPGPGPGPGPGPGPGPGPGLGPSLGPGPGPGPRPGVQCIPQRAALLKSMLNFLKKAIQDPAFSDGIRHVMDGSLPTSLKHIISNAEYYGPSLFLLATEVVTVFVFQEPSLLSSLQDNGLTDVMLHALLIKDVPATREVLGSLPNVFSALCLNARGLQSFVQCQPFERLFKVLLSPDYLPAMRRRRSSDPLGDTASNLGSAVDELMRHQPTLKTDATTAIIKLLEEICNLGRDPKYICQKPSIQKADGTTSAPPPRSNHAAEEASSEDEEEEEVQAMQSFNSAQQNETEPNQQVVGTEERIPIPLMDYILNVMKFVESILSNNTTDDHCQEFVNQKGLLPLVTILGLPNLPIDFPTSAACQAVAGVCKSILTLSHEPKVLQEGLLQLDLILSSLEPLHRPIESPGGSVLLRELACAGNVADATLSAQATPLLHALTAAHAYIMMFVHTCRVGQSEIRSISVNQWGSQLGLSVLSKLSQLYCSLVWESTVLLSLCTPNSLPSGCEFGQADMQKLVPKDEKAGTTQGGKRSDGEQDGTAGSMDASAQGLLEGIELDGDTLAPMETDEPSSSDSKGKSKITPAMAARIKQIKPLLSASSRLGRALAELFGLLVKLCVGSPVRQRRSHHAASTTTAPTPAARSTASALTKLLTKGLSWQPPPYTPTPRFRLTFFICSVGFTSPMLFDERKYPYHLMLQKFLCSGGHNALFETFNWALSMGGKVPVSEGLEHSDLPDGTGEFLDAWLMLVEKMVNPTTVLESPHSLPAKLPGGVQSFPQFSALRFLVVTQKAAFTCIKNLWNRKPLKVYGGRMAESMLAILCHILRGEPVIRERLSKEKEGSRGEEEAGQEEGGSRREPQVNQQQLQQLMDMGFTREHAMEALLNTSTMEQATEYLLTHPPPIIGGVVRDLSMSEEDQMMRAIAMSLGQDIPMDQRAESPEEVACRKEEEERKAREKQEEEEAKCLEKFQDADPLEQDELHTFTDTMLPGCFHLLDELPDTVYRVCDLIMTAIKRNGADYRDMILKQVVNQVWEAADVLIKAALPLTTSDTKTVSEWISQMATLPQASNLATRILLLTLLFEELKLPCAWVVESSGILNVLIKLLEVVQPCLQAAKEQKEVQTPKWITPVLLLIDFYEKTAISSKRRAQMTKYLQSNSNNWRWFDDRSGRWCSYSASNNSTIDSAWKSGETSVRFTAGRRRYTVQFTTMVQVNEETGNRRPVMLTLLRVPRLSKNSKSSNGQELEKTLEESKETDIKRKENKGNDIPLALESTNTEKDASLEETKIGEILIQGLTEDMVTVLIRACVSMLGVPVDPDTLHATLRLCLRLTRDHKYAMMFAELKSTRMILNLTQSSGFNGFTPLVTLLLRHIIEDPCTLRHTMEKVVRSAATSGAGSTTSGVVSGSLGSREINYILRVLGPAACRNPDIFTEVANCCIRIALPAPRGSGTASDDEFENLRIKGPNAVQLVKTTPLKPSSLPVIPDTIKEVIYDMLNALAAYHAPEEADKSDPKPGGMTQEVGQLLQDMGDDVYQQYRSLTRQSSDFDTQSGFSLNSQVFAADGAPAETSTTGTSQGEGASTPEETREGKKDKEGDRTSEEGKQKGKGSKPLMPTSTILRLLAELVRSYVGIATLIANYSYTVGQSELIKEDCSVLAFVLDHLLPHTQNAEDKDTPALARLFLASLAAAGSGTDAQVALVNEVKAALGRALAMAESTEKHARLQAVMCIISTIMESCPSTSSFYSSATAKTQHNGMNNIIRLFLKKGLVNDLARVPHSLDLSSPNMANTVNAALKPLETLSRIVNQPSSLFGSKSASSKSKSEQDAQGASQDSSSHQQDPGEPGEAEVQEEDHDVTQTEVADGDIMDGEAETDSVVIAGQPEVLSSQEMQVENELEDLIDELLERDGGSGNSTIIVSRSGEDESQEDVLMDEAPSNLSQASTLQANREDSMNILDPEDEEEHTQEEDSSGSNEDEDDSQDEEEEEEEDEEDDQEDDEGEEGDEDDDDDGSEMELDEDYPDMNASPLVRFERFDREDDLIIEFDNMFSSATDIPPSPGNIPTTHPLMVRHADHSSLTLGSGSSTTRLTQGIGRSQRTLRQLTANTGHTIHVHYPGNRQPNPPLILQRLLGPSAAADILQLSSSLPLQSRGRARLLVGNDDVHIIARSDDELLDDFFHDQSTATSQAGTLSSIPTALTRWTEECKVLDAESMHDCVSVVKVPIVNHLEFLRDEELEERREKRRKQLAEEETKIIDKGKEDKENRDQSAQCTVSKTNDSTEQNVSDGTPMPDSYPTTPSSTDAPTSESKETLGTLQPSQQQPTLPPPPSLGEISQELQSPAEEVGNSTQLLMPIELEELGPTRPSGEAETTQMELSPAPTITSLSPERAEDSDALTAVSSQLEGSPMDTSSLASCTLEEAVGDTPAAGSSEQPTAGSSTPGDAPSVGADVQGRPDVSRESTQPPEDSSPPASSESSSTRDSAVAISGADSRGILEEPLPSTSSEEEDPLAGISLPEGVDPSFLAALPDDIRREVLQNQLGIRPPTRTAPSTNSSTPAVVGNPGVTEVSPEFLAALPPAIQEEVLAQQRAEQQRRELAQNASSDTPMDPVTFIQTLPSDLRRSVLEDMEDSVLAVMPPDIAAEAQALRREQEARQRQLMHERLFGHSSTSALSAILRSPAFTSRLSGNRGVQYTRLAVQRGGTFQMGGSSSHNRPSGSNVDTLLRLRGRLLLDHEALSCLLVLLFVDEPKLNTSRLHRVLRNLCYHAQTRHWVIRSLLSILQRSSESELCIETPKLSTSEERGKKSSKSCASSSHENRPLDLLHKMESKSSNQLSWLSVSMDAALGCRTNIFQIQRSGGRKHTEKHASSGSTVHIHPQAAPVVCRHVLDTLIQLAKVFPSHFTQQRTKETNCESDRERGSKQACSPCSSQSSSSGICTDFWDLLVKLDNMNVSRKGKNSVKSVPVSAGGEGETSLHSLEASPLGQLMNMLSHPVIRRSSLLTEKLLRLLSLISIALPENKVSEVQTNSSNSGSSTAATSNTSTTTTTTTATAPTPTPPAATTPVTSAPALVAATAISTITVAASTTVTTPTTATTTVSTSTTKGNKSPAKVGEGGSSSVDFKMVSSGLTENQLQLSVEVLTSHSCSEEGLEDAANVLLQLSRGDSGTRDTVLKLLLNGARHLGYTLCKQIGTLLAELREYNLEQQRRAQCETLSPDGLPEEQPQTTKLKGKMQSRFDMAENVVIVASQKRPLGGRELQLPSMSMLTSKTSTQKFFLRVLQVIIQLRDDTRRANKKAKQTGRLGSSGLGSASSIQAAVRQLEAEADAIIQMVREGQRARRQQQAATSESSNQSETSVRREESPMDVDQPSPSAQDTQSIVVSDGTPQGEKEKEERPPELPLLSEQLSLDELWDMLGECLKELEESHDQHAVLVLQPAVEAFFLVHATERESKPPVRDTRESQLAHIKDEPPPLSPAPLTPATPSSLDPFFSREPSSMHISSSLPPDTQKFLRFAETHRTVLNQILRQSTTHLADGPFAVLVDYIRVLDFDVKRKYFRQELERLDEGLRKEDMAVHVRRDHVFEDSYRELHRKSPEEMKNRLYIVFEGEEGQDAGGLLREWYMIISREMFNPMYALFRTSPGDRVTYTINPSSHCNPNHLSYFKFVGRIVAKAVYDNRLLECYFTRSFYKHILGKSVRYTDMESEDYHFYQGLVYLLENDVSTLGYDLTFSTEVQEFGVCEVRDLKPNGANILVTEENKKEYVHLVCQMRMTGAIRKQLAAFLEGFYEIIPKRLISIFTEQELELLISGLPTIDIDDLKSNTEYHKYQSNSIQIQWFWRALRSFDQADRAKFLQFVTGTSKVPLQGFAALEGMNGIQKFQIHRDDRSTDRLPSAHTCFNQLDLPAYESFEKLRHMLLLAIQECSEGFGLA

Target: T1, neurofilament light chain protein (rat (endogenous in SD rats)) (UniProt P19527)
T1 sequence: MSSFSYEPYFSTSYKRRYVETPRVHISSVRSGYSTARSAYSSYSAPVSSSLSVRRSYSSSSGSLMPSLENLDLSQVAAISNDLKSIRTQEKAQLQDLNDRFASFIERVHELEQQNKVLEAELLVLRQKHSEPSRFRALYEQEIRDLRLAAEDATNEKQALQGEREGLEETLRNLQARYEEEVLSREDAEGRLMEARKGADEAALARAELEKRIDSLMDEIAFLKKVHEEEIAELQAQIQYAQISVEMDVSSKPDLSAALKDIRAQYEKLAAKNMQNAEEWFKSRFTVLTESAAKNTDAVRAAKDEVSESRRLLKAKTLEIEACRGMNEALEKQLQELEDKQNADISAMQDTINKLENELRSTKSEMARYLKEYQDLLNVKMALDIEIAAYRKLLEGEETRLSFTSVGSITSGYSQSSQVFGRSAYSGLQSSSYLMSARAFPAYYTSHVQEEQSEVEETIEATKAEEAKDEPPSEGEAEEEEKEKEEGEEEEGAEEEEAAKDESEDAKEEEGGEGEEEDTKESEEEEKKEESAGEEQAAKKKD
Test: affinity purification with mass spectrometry; Co-IP of NFL from total protein of control and high-dose atorvastatin rat groups (antibody overnight at 4 °C, Protein A agarose beads 2 h at 4 °C), SDS-PAGE, bands excised and analysed by mass spectrometry

Molecule: HUWE1 (from UniProt P51593 1-4454) (enzyme)
- binding: binds

B1: SIRT2 (enzyme, UniProt Q5RJQ4 1-350)
chain: MDFLRNLFTQTLGLGSQKERLLDELTLEGVTRYMQSERCRRVICLVGAGISTSAGIPDFRSPSTGLYANLEKYHLPYPEAIFEISYFKKHPEPFFALAKELYPGQFKPTICHYFIRLLKEKGLLLRCYTQNIDTLERVAGLEPQDLVEAHGTFYTSHCVNTSCGKEYTMSWMKEKIFSEATPKCEKCQNVVKPDIVFFGENLPPRFFSCMQSDFSKVDLLIIMGTSLQVQPFASLISKAPLATPRLLINKEKTGQTDPFLGMMMGLGGGMDFDSKKAYRDVAWLGDCDQGCLALADLLGWKELEDLVRREHANIDAQSGSQASNPSATVSPRKSPPPAKEAARTKEKEEH
- binding: binds
